Values from PubChem BioAssay AID1259424 (University of Nebraska Medical Center, 2018)

Assay: 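Rank knockdowns across the genome by resemblance to the KSR1 depletion profile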 (primary screen)
System: human HCT116 colon cancer cells
Reagent: siRNA pool against human genes, 50 nM
Measured: 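Log2 levels of six mRNAs (branched-DNA multiplex), adjusted by two reference genes and the non-targeting median, then scored against the average KSR1 knockdown pattern as Pearson r and euclidean distance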
Scale: mean correlation with KSR1 profile: higher = expression change more like KSR1 knockdown; mean distance from KSR1 profile: higher = expression change less like KSR1 knockdown
The whole screen tested about 14,000 reagents; shown is a random part of them. 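Higher correlation or smaller distance means closer resemblance to KSR1 loss; control wells, including KSR1 knockdowns, recur on many plates.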 Further read-outs or replicates are left out here. Reagent sequences are not shown. The record does not give: the time to read-out.

With AEBP2, what does the deposit list?
mean correlation with KSR1 profile: -0.38; mean distance from KSR1 profile: 2.18

For ATP2A2, how do the results read?
mean correlation with KSR1 profile: -0.0156; mean distance from KSR1 profile: 3.4

How did the screen score DECR2?
mean correlation with KSR1 profile: 0.0777; mean distance from KSR1 profile: 4.02

How did the screen score NKX2-2?
mean correlation with KSR1 profile: -0.219; mean distance from KSR1 profile: 3.75

How did the screen score NELL2?
mean correlation with KSR1 profile: -0.0218; mean distance from KSR1 profile: 1.31

With EDARADD, what was measured?
mean correlation with KSR1 profile: -0.0447; mean distance from KSR1 profile: 1.25

With LIPF, what was measured?
mean correlation with KSR1 profile: -0.232; mean distance from KSR1 profile: 1.23

What did the screen give for RANBP1?
mean correlation with KSR1 profile: -0.312; mean distance from KSR1 profile: 1.8

With GPRC5C, what does the deposit list?
mean correlation with KSR1 profile: 0.664; mean distance from KSR1 profile: 2.56

What did the screen give for A1BG?
mean correlation with KSR1 profile: -0.57; mean distance from KSR1 profile: 2.21

With TADA3, what does the deposit list?
mean correlation with KSR1 profile: 0.0695; mean distance from KSR1 profile: 2.91

For SLC12A9, what does the deposit list?
mean correlation with KSR1 profile: 0.602; mean distance from KSR1 profile: 2.29

What did the screen give for ANGPT4?
mean correlation with KSR1 profile: -0.0656; mean distance from KSR1 profile: 2.6

Reformatted: 2 of the entries above.
gene knocked down,mean correlation with KSR1 profile,mean distance from KSR1 profile
SLC12A9,0.602,2.29
ANGPT4,-0.0656,2.6

The listing continues.
How did the screen score SPPL2B?
mean correlation with KSR1 profile: -0.218; mean distance from KSR1 profile: 2.36

For PBXIP1, what does the deposit list?
mean correlation with KSR1 profile: -0.622; mean distance from KSR1 profile: 2.92

With ACTG1, what does the deposit list?
mean correlation with KSR1 profile: -0.586; mean distance from KSR1 profile: 2.07

With NKX3-2, what was measured?
mean correlation with KSR1 profile: 0.714; mean distance from KSR1 profile: 1.62

Which result is listed for TSLIG2?
mean correlation with KSR1 profile: -0.706; mean distance from KSR1 profile: 1.74

For STRN, how do the results read?
mean correlation with KSR1 profile: 0.735; mean distance from KSR1 profile: 1.2

With ABI2, what was measured?
mean correlation with KSR1 profile: -0.343; mean distance from KSR1 profile: 1.84

What did the screen give for SLC25A33?
mean correlation with KSR1 profile: 0.125; mean distance from KSR1 profile: 2.23

For DISP1, what does the deposit list?
mean correlation with KSR1 profile: 0.293; mean distance from KSR1 profile: 4.04

For AQP4, what was measured?
mean correlation with KSR1 profile: -0.291; mean distance from KSR1 profile: 2.54

With SNRPD1, what was measured?
mean correlation with KSR1 profile: 0.189; mean distance from KSR1 profile: 1.81

With RPE, how do the results read?
mean correlation with KSR1 profile: 0.264; mean distance from KSR1 profile: 2.05

For OGDH, what does the deposit list?
mean correlation with KSR1 profile: 0.296; mean distance from KSR1 profile: 2.81

With MAGI2, what does the deposit list?
mean correlation with KSR1 profile: 0.14; mean distance from KSR1 profile: 1.25

How did the screen score NPAS4?
mean correlation with KSR1 profile: -0.751; mean distance from KSR1 profile: 1.32

With TLX3, how do the results read?
mean correlation with KSR1 profile: -0.256; mean distance from KSR1 profile: 3.38

How did the screen score ENDOG?
mean correlation with KSR1 profile: -0.475; mean distance from KSR1 profile: 3.76

For MFAP5, what does the deposit list?
mean correlation with KSR1 profile: -0.23; mean distance from KSR1 profile: 2.43

With LTK, what was measured?
mean correlation with KSR1 profile: 0.223; mean distance from KSR1 profile: 1.94

What is on record for MTPAP?
mean correlation with KSR1 profile: 0.721; mean distance from KSR1 profile: 1.47

What did the screen give for PHC2?
mean correlation with KSR1 profile: 0.797; mean distance from KSR1 profile: 4.24

Which result is listed for NXT1?
mean correlation with KSR1 profile: -0.267; mean distance from KSR1 profile: 1.74

With BTBD10, what was measured?
mean correlation with KSR1 profile: 0.352; mean distance from KSR1 profile: 2.45
